No constants are given. Whether binding was seen depends on the method and setting. For some assays here: Binding seen in cells or lysates may run through a third protein. Some entries that bind do so weakly or less than the wild type. Sequences can lack the tags named with a protein.
Key:
[1] = biological target: T1, ABI1 fused to the GAL4-activating domain (AD) (Arabidopsis), P49597; test: yeast two-hybrid, growth on media lacking His and His/Ade, with and without ABA (ABA-independent); conditions: remark: other sources report otherwise
T1 chain: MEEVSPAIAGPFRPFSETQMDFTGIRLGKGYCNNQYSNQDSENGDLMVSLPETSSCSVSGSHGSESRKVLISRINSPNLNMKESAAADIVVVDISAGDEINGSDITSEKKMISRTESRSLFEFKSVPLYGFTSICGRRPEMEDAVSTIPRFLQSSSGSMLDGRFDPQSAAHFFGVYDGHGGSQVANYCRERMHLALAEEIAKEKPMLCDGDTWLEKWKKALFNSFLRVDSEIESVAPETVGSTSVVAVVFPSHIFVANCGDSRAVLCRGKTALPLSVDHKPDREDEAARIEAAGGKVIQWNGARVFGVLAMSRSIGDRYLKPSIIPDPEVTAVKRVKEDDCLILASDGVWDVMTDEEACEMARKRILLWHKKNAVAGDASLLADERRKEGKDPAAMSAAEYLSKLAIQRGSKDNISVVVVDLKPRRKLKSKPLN

By UniProt entry, the sequences of proteins in these tests, tags left out. Where a name states a change or a piece, a line headed by the entry shows the natural chain unless it says otherwise.
UniProt Q8VZS8: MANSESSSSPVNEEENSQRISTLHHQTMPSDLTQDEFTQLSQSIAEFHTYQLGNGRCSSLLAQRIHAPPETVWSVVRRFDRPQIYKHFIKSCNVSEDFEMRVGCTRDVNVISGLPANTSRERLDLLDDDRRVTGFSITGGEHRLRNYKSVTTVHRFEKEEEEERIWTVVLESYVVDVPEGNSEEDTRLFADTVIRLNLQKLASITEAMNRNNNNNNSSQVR
UniProt O04719: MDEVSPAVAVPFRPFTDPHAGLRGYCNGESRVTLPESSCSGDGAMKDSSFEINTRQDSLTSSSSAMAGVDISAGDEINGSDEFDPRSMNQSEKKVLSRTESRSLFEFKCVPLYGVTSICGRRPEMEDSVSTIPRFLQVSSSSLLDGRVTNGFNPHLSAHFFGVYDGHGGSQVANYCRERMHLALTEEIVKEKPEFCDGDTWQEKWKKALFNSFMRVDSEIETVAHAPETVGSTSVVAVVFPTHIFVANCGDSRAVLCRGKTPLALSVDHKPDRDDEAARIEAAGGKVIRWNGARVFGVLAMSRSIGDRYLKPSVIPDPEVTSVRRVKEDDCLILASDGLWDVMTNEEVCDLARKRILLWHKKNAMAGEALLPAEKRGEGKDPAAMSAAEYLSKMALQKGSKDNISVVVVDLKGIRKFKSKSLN

[2] = biological target: T2, GST-tagged PYL2 (Arabidopsis thaliana) (UniProt O80992); test: His pull-down of purified recombinant proteins
T2 sequence: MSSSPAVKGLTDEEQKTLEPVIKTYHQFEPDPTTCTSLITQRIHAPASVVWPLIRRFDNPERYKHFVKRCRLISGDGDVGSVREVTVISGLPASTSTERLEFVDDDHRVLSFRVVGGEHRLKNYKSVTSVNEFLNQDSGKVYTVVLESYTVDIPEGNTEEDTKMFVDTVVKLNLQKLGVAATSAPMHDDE

[3] = biological target: GST-tagged PYL1 (Arabidopsis thaliana) (UniProt Q8VZS8); test: His pull-down of purified recombinant proteins
[4] = biological target: ABI2 without tag (purified recombinant) (Arabidopsis) (UniProt O04719); test: His pull-down of purified recombinant proteins, SDS-PAGE/Coomassie, with or without 200 µM ABA
[5] = biological target: T3, PP2CA without tag (purified recombinant) (Arabidopsis) (UniProt P49598); test: as above
T3 sequence (looked up): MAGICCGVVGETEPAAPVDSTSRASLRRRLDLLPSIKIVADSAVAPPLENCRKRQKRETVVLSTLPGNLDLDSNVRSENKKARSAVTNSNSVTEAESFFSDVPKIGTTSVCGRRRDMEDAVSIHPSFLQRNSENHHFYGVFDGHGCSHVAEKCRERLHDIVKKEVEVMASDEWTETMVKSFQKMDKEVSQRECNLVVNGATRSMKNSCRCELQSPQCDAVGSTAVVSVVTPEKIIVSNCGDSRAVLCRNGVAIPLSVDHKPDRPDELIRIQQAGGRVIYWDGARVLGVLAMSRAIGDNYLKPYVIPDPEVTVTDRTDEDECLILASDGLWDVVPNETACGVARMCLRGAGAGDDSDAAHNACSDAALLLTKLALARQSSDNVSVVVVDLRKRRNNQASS

[6] = biological target: T4, AHG1 without tag (purified recombinant) (Arabidopsis) (UniProt Q9FLI3); test: as above
T4 sequence (looked up): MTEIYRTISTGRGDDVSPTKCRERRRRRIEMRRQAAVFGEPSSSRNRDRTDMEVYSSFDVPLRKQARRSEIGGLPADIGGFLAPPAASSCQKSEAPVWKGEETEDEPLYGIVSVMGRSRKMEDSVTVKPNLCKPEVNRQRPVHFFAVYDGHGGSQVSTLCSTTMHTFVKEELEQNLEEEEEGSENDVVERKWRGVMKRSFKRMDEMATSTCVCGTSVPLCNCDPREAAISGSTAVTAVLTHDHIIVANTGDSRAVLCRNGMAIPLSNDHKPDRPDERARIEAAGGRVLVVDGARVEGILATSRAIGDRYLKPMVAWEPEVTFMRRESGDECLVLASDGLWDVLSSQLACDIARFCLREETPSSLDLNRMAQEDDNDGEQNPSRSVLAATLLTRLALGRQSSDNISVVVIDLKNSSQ

[7] = biological target: T5, ABI1-HA (Arabidopsis), P49597; test: co-IP from protoplasts with anti-HA agarose, western blot; with or without 10 µM ABA; conditions: remark: other sources report otherwise
T5 chain: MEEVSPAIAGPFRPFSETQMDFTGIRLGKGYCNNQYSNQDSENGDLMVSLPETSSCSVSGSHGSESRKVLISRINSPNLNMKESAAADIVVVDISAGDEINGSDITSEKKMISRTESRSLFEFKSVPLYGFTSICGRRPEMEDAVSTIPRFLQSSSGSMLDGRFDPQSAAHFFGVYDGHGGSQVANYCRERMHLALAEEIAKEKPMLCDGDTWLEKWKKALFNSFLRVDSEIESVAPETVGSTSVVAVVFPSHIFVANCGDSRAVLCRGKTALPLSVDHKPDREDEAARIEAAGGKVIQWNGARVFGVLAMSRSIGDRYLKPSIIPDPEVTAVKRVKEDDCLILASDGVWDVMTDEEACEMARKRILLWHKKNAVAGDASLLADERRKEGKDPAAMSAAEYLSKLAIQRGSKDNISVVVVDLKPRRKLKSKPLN

[8] = biological target: T6, ABI1 without tag (purified recombinant) (Arabidopsis), P49597; test: His pull-down of purified recombinant proteins, SDS-PAGE/Coomassie, with or without 200 µM ABA; conditions: remark: other sources report otherwise
T6 chain: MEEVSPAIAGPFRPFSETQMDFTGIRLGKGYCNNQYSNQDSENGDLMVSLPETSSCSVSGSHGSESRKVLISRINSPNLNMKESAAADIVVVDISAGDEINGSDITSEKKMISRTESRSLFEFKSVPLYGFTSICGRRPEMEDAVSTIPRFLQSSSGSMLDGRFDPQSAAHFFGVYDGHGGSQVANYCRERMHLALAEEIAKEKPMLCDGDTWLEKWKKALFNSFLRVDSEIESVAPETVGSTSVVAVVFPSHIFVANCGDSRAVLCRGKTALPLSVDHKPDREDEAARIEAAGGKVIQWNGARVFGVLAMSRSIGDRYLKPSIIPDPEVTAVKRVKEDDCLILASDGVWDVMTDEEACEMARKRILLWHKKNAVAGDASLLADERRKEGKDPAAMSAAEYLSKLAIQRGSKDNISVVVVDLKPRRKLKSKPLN

B1: PYL13 fused to the GAL4-DNA-binding domain (BD), Q9SN51 1-164 (protein, not shown: small tags and cut ends)
chain: MESSKQKRCRSSVVETIEAPLPLVWSILRSFDKPQAYQRFVKSCTMRSGGGGGKGGEGKGSVRDVTLVSGFPADFSTERLEELDDESHVMVVSIIGGNHRLVNYKSKTKVVASPEDMAKKTVVVESYVVDVPEGTSEEDTIFFVDNIIRYNLTSLAKLTKKMMK
[1]
  binding: binds

B2: His-tagged PYL13 (protein, not shown: small tags and cut ends)
chain: MESSKQKRCRSSVVETIEAPLPLVWSILRSFDKPQAYQRFVKSCTMRSGGGGGKGGEGKGSVRDVTLVSGFPADFSTERLEELDDESHVMVVSIIGGNHRLVNYKSKTKVVASPEDMAKKTVVVESYVVDVPEGTSEEDTIFFVDNIIRYNLTSLAKLTKKMMK
[2]
  binding: binds
[3]
  binding: binds
[4]
  binding: binds
[5]
  binding: binds
[6]
  binding: binds

B3: c-myc-tagged PYL13, Q9SN51 1-164 (protein, not shown: small tags and cut ends)
chain: MESSKQKRCRSSVVETIEAPLPLVWSILRSFDKPQAYQRFVKSCTMRSGGGGGKGGEGKGSVRDVTLVSGFPADFSTERLEELDDESHVMVVSIIGGNHRLVNYKSKTKVVASPEDMAKKTVVVESYVVDVPEGTSEEDTIFFVDNIIRYNLTSLAKLTKKMMK
[7]
  binding: binds

B4: His-tagged PYL13, Q9SN51 1-164 (protein, not shown: small tags and cut ends)
chain: MESSKQKRCRSSVVETIEAPLPLVWSILRSFDKPQAYQRFVKSCTMRSGGGGGKGGEGKGSVRDVTLVSGFPADFSTERLEELDDESHVMVVSIIGGNHRLVNYKSKTKVVASPEDMAKKTVVVESYVVDVPEGTSEEDTIFFVDNIIRYNLTSLAKLTKKMMK
[8]
  binding: binds

Source: patent US20150074844A1
